# Among all 360,000 compounds or so, about 10,000 (2.8%) were called active. The inconclusive results got no clear call from the source; some entries with a clear call stand among them for comparison. Calls come from the whole dose curve; as a rule, active = well fitted inhibition curve with a large enough effect; inconclusive = small, poorly fitted or top-dose-only effect; inactive = flat fitted curve, though single readings scatter. Potencies beside an inconclusive call are fits to weak or partial responses and may not hold up.
# The chains behind the UniProt entries cited, without tags or fusion partners.
# UniProt P53350, whole entry, looked up: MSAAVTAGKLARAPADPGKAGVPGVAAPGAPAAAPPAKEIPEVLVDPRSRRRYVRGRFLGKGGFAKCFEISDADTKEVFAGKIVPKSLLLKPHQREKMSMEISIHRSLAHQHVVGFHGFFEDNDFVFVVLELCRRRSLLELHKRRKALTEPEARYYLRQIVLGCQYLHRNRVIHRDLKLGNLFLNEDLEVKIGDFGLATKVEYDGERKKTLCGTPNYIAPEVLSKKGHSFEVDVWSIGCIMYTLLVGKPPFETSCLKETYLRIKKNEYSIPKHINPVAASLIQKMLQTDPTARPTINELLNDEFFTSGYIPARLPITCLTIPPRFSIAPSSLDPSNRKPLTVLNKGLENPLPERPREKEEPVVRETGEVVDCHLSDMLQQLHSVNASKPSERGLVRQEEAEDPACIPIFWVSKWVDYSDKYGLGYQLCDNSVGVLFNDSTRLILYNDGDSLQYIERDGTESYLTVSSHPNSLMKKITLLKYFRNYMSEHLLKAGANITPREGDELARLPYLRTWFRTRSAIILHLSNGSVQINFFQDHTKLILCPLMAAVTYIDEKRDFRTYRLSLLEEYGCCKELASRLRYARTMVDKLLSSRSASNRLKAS
# Target: Serine/threonine-protein kinase PLK1 (Homo sapiens) (UniProt P53350)
# Test: qHTS for Inhibitors of PLK1-PDB (polo-like kinase 1 - polo-box domain): Primary Screen; note: nearly all actives have a fitted effect of over 65% in size; for max response, negative = inhibition: series mostly up to about 57 µM
# Details: Plk1 PBD binding of FITC phosphopeptide, fluorescence polarization
# % is set by controls: 0 for no effect and ±100 for the full control effect; potency is the fitted concentration of half-maximal effect.
SMILES,"max response, negative = inhibition",Potency
Oc1cccc2ccc(N3CCOCC3)nc12,inactive: 3.61%,
O=C(O)c1cccc(Cn2c(Cl)c(/C=N/Nc3ccccc3)sc2=O)c1,,"inconclusive: 29.9 µM [inhibitor, single point]"
Cc1nn(-c2ccccc2)c(Cl)c1/C=C1\SC(=S)NC1=O,,"inconclusive: 37.7 µM [inhibitor, single point]"
O=C(O)c1ccc(S(=O)(=O)c2ccc3c(c2)C(=O)N(NC(=O)c2ccncc2)C3=O)cc1,inactive: -7.09%,
COc1ccc2nc(SCC(C)=O)c(C#N)cc2c1,inconclusive: -34.3% [inhibitor],
COc1cc2c(cc1OC)-c1cc(NCc3ccccn3)nc(=O)n1CC2,inactive: -20.4%,
CC(C)(C)C1CCC(=NNC(=S)NCc2ccccc2)CC1 (stereo not drawn),inactive: -0.444%,
COc1ccc(OCc2nnc(NC(=O)Nc3ccc(F)cc3)s2)cc1,,"inconclusive: 23.8 µM [inhibitor, partial curve]"
CN1CCN(C2CC(=O)N(c3ccc4c(c3)OCCO4)C2=O)CC1 (stereo not drawn),inactive: 3.5%,
O=[N+]([O-])c1ccc(CSc2nc3ccccc3o2)cc1,,"inconclusive: 21.2 µM [inhibitor, partial curve]"
CN1CCN(Cc2nc3ccccc3c(=O)n2Cc2nc(-c3ccccc3F)cs2)CC1,,"inconclusive: 26.7 µM [inhibitor, partial curve]"
Cc1ccnc(NC(c2ccccc2)c2ccc3cccnc3c2O)c1 (stereo not drawn),,"inconclusive: 4.74 µM [inhibitor, partial curve]"
CCCc1c(-c2cccc(Cl)c2)ncn1Cc1cccc(-c2ccccc2)c1,,"inconclusive: 21.2 µM [inhibitor, partial curve]"
COc1ccc(C(=O)[C@H]2[C@H]3C(=O)N(c4ccc(C)cc4)C(=O)[C@H]3C3C=CC=NN32)cc1 (stereo partly drawn),inactive: 1.36%,
Cc1ccc(C2C(C#N)C(C#N)N3CCCN23)cc1 (stereo not drawn),,"inconclusive: 23.8 µM [inhibitor, partial curve]"
c1ccc(C2NCCn3cccc32)cc1 (stereo not drawn),inactive: -8.49%,
Cc1c(C(=O)N(Cc2ccccc2)C(C)C)oc2ccc(S(=O)(=O)N3CCOCC3)cc12,,active: 29.9 µM
Nc1cccc2c1C(=O)N(CCOc1ccc(F)cc1)C2=O,inactive: -5.26%,
C=CCNC(=O)CSc1cc([N+](=O)[O-])cc(S(=O)(=O)Cc2ccccc2)c1,,"inconclusive: 15 µM [inhibitor, partial curve]"
COc1ccc(NC(=O)CN(C)S(=O)(=O)c2ccc(Cl)cc2)cn1,,"inconclusive: 29.9 µM [inhibitor, single point]"
Cc1sc(NC(=O)C2=COCCO2)c(C#N)c1C,,active: 11.9 µM
CC(C)(C)[C@H]1COC(=O)[C@@H](Cc2ccc(F)cc2)CC/C=C/C[C@@H](CC(=O)N[C@@H](CO)Cc2ccccc2)C(=O)N1,inactive: 2.05%,
C=CCn1c(SCC(=C)C)nc2c1c(=O)[nH]c(=O)n2C,,"inconclusive: 26.7 µM [inhibitor, single point]"
Cc1ccc(-c2csc(NC(=O)c3ccccc3F)c2C(=O)O)cc1,,"inconclusive: 21.2 µM [inhibitor, single point]"
O=c1[nH]c(=S)c2ncn(-c3ccccc3)c2[nH]1,,active: 26.7 µM

# Five entries already listed, ordered by SMILES length, descending.
SMILES,"max response, negative = inhibition",Potency
CCCc1c(-c2cccc(Cl)c2)ncn1Cc1cccc(-c2ccccc2)c1,,"inconclusive: 21.2 µM [inhibitor, partial curve]"
COc1ccc(NC(=O)CN(C)S(=O)(=O)c2ccc(Cl)cc2)cn1,,"inconclusive: 29.9 µM [inhibitor, single point]"
Cc1ccc(-c2csc(NC(=O)c3ccccc3F)c2C(=O)O)cc1,,"inconclusive: 21.2 µM [inhibitor, single point]"
COc1ccc(OCc2nnc(NC(=O)Nc3ccc(F)cc3)s2)cc1,,"inconclusive: 23.8 µM [inhibitor, partial curve]"
Oc1cccc2ccc(N3CCOCC3)nc12,inactive: 3.61%,

# (list continues)

SMILES,"max response, negative = inhibition",Potency
O=C(O)CCC(=O)NNC(=O)CCC(=O)Nc1ccccc1,,"inconclusive: 26.7 µM [inhibitor, single point]"
Cc1ccccc1/C=C1\SC(=S)N(/N=C/c2cc([N+](=O)[O-])ccc2O)C1=O,,"inconclusive: 26.7 µM [inhibitor, partial curve]"
COc1ccc(NC(=S)N2CCN(c3ncccn3)CC2)c(OC)c1,,"inconclusive: 26.7 µM [inhibitor, partial curve]"
CCOc1ccccc1C1CC(=O)NC(SCC)=C1C#N (stereo not drawn),inactive: 0.326%,
CC(=Nc1ccc(Br)cc1)c1sc2ccccc2c1O,inconclusive: -31% [inhibitor],
Cc1ccc(S(=O)(=O)Nc2ccc(-c3cn4ccc(C)cc4n3)cc2)cc1,,"inconclusive: 6.7 µM [inhibitor, partial curve]"
CC(C)Cc1nnc(NC(=O)CSc2ccccn2)s1,,"inconclusive: 28.2 µM [inhibitor, partial curve]"
Cn1cc(C(=O)Nc2ccc(F)c(Cl)c2)cn1,inactive: 0.865%,
CCc1nnc(NS(=O)(=O)c2ccc(Nc3ccc([N+](=O)[O-])c4nonc34)cc2)s1,,"inconclusive: 18.9 µM [inhibitor, single point]"
CCCCCC(=O)N1C[C@@H](O)[C@H](n2cc(C3CC3)nn2)C[C@@H]1c1ccc(C)cc1,inactive: -5.34%,
O=C(O)c1cccc(N2C(=O)C=CC2=O)c1,,active: 11.9 µM
Cc1ccc(-n2cccc2/C=C2/C(=N)N3C(=NC2=O)SN=C3S(C)(=O)=O)cc1,,"inconclusive: 26.7 µM [inhibitor, partial curve]"
S=c1[nH]nc(COc2ccc3ccccc3c2)o1,,"inconclusive: 33.6 µM [inhibitor, single point]"
O=C(/C=C/c1ccco1)N1CCCC(c2ccccc2)C1 (stereo not drawn),,"inconclusive: 7.52 µM [inhibitor, full curve]"
CN1CCN(c2nc(-c3ccc(Cl)s3)cs2)CC1,,active: 18.9 µM
COc1cccc(CNC(=O)C2Cc3ccccc3CN2C(C)=O)c1 (stereo not drawn),,active: 29.9 µM
COC(=O)C1C(O)=C(C(C)=Nc2cccc3ccccc23)C(=O)CC1(C)C (stereo not drawn),inactive: -13%,
O=C(O)Cc1sc(Nc2ccccc2)nc1-c1cccs1,,active: 21.2 µM
COc1cc(Cl)c(C)cc1N1C(=O)CN(Cc2ccccc2)C1=S,,active: 23.8 µM
Cc1ccc(C(=O)N/N=C/c2ccc(-c3ccc(Br)cc3[N+](=O)[O-])o2)o1,,"inconclusive: 15 µM [inhibitor, partial curve]"
O=c1c(Cl)c(Cl)cnn1Cc1nnc(-c2ccccc2Br)o1,,"inconclusive: 29.9 µM [inhibitor, single point]"
CC1=CC(=NOC(=O)/C=C/c2ccccc2)C=C(C)C1=O,,active: 18.9 µM
COC(=O)c1ccc(NC(=S)NC2CC2)cc1,inactive: -15.2%,
CC(Sc1cccc[n+]1[O-])C(=O)NC1CCCCC1C (stereo not drawn),,active: 23.8 µM
COc1ccc(C)cc1NC(=O)C1CCCN1S(=O)(=O)c1ccc2c(c1)CCC(=O)N2 (stereo not drawn),,"inconclusive: 21.2 µM [inhibitor, single point]"

SMILES,"max response, negative = inhibition",Potency
Cc1ccccc1OCC(=O)Nc1ccc(N2CCOCC2)cc1N1CCOCC1,inactive: 0.518%,
O=C(NCC(c1ccco1)N1CCc2ccccc2C1)c1ccccc1 (stereo not drawn),inactive: -0.804%,
CCc1ccc2c(c1)C1(NN=C(c3ccccc3)S1)C(=O)N2 (stereo not drawn),,"inconclusive: 23.8 µM [inhibitor, partial curve]"
CC1(Br)C(Sc2ccccc2[N+](=O)[O-])=Nc2ccccc21 (stereo not drawn),,"inconclusive: 10.6 µM [inhibitor, partial curve]"
CC1CCCN(c2nc3ccccc3nc2C(C#N)S(=O)(=O)c2ccccc2)C1 (stereo not drawn),,"inconclusive: 26.7 µM [inhibitor, partial curve]"
C=CCn1c(SCc2ccc(Br)cc2F)nc2cc(C(=O)O)ccc2c1=O,,"inconclusive: 23.8 µM [inhibitor, partial curve]"
COc1ccc(-c2cc(NC=O)c3ncc(-c4cccc(C(=O)N(C)C)c4)n3c2)c(OC)c1,inactive: -16.4%,
O=C(NN1C(=O)c2ccccc2NC1c1ccco1)c1ccccc1 (stereo not drawn),inactive: -9.98%,
COc1ccc(-n2nnnc2SCC(=O)Nc2nnc(C)s2)cc1OC,,"inconclusive: 37.7 µM [inhibitor, single point]"
Cc1ccc(Nc2nc(-c3sc(N)nc3C)cs2)cc1,,"inconclusive: 29.9 µM [inhibitor, partial curve]"
CC1(C)Cc2c(cnn2-c2ccc(F)cc2)C(NC(=O)C2=NNC(=O)CC2)C1 (stereo not drawn),,active: 2.99 µM
Cc1[nH]c2ccccc2c1C(=O)c1cc(Cc2ccccc2)sc1N,,"inconclusive: 26.7 µM [inhibitor, partial curve]"
O=C(c1ccco1)C(O)c1ccco1 (stereo not drawn),,"inconclusive: 21.2 µM [inhibitor, partial curve]"
Cc1ccc(S(=O)(=O)/N=C(/NC(=S)Nc2cccc(C)c2)c2ccccc2)cc1,,"inconclusive: 16.8 µM [inhibitor, partial curve]"
CCOc1ccc(NC(c2ccccn2)c2oc(CO)cc(=O)c2O)cc1 (stereo not drawn),,"inconclusive: 2.99 µM [inhibitor, full curve]"
S=C(Nc1ccc2nc(-c3ccccn3)c(-c3ccccn3)nc2c1)N1CCCCC1,,"inconclusive: 21.2 µM [inhibitor, single point]"
Cc1ccc(SCc2nc(-c3ccncc3)no2)cc1,,active: 2.99 µM
CCCCC[C@@H]1C=C(C(=O)O)[C@H](c2cccc(C)c2)N1S(=O)(=O)c1ccc(C)cc1,inconclusive: -30.4% [inhibitor],
CN(C(=O)CSc1nnc(-c2cccs2)o1)C1CCS(=O)(=O)C1 (stereo not drawn),inactive: -9.65%,
CCOC(=O)N1CCN(c2c(NCc3ccc(N(C)C)cc3)c(=O)c2=O)CC1,inactive: 1.84%,
CCOc1ccc(NC(=S)Nc2cccc3cnccc23)cc1,,"inconclusive: 29.9 µM [inhibitor, partial curve]"
Cc1cccc(C)c1Cn1c(C)c(C(=O)NCCC#N)sc1=O,inactive: 0.0552%,
C=C(C)C(=O)Nc1cccc(C2=NOC3(C2)C[C@@H](C(N)=O)N(C(=O)c2cc([N+](=O)[O-])cc([N+](=O)[O-])c2)C3)c1 (stereo partly drawn),,"inconclusive: 33.6 µM [inhibitor, single point]"
